Data published in PubChem BioAssay AID504834 (National Center for Advancing Translational Sciences (NCATS), 2011).
About 22,000 (6.9%) of roughly 320,000 compounds were called active. This list was built around the results that the source calls inconclusive (neither active nor inactive); the mix of calls is not that of the screen. Calls come from the whole dose curve; as a rule, active = well fitted inhibition curve with a large enough effect; inconclusive = small, poorly fitted or top-dose-only effect, or another doubt; inactive = no such curve, though single readings can be large or run the other way. Potencies beside an inconclusive call are fits to weak or partial responses and may not hold up.

Assay: Primary qHTS for delayed death inhibitors of the malarial parasite plastid, 96 hour incubation
Conditions: P. falciparum luciferase reporter growth; series mostly up to 28.7 µM
Method in brief: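 96 h incubation, 37 C, 5% CO2, of luciferase-reporter P. falciparum-infected RBCs (2% hematocrit, 0.05% parasitemia final) with test compounds; endpoint luminescence.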
Potency is the fitted concentration of half-maximal effect.

Structure (SMILES)	Potency
Cn1nnnc1SCc1csc(Nc2ccccc2)n1	inactive
CC(=O)C(Sc1ccc2nnc(-c3ccc(F)cc3)n2n1)C(C)=O	inconclusive: 10.4 µM [inhibitor, single point]
Cc1ccc2c(c1)C(c1ccccc1)N(C(=O)C(C)C)CC(=O)N2 (configuration not stated)	inconclusive: 13.1 µM [inhibitor, partial curve, poor fit]
Cc1ccc(OCC(=O)Nc2ccc(S(=O)(=O)N3CCN(C)CC3)cc2)cc1	inconclusive: 11.7 µM [inhibitor, partial curve, poor fit]
CC1=C/C(=C(\c2cc(C)c(O)c(Br)c2)c2ccccc2S(=O)(=O)O)C=C(Br)C1=O	active: 10.4 µM
CC(C)(C)N(Cc1ccccc1)C(=O)COC(=O)CN1C(=O)NC2(CCCC2)C1=O	inconclusive: 18.5 µM [inhibitor, single point]
CCOc1ccccc1N1CN(C2CCCCC2)CNC1=S	inconclusive: 18.5 µM [inhibitor, single point]
O=C(COc1ccc(S(=O)(=O)Nc2ccccc2)cc1)NCc1ccncc1	inactive
COc1ccc(CNC(=O)COC(=O)c2cccc(S(=O)(=O)N3CCOCC3)c2)cc1	inconclusive: 18.5 µM [inhibitor, single point]
CCOc1ccc(/C(O)=C2/C(=O)C(=O)N(CC3CCCO3)C2c2cccs2)cc1 (configuration not stated)	inconclusive: 4.15 µM [inhibitor, partial curve]
CC(C)n1cc(CN2CCC(C(=O)Nc3cccc(-c4cscn4)c3)CC2)cn1	inconclusive: 18.5 µM [inhibitor, single point]
Cc1ccc(S(=O)(=O)NC(CC(=O)NCC2CCCO2)c2ccco2)cc1 (configuration not stated)	inconclusive: 18.5 µM [inhibitor, single point]
O=C(CSc1nnc(COc2ccccc2)n1-c1ccccc1)c1cccs1	inconclusive: 13.1 µM [inhibitor, partial curve, poor fit]
COC(=O)c1c(NC(=O)CN2CCN(C(=O)c3ccco3)CC2)c2cc(C)ccc2n1C	inconclusive: 11.7 µM [inhibitor, single point]
C/C=C/C(=O)Nc1cccc(C2=NOC3(C2)C[C@@H](C(N)=O)N(C(=O)/C(C)=C/C)C3)c1 (some centres not stated)	inconclusive: 8.28 µM [inhibitor, single point]
C=CCOc1c(CNn2nnnc2N)cccc1OC	inconclusive: 10.4 µM [inhibitor, single point]
CNC(=O)c1ccc(-c2sc3nc(N4CCOCC4)c4c(c3c2N)CC(C)(C)OC4)o1	inconclusive: 0.928 µM [inhibitor, full curve, poor fit]

Fetched by structure from the list above, two records:
Structure (SMILES)	Potency
C/C=C/C(=O)Nc1cccc(C2=NOC3(C2)C[C@@H](C(N)=O)N(C(=O)/C(C)=C/C)C3)c1 (some centres not stated)	inconclusive: 8.28 µM [inhibitor, single point]
Cc1ccc(OCC(=O)Nc2ccc(S(=O)(=O)N3CCN(C)CC3)cc2)cc1	inconclusive: 11.7 µM [inhibitor, partial curve, poor fit]
